Results as given in patent US20060002951A1.
Results are given in words; binding and its absence hold for the method and conditions named. In cells and extracts the contact can be indirect. Some entries that bind do so weakly or less than the wild type.

Sequences of proteins named here, by UniProt entry; tags and fusion partners are left off. A change or cut given only in a name is not applied to a line headed by its entry.
UniProt Q9HC16: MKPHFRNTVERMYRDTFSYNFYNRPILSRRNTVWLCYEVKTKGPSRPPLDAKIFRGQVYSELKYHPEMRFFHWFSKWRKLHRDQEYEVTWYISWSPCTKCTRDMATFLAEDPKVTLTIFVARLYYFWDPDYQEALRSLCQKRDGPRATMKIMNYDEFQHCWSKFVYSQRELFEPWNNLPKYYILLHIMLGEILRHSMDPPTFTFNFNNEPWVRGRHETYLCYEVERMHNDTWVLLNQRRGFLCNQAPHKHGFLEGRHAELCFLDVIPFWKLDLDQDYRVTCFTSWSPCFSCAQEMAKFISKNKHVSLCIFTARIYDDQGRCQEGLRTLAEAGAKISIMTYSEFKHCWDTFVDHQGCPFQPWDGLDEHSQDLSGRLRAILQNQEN

Target: wild-type human APOBEC3G with a fused HA tag at the C-terminus (human) (UniProt Q9HC16)
Assay: co-immunoprecipitation with anti-HA after RNase A treatment, Western blot with anti-CA

“Gag of HIV-1 BH10 expressed from BH10.P-.Vif- or BH10.FS-.Vif- proviral DNA (from UniProt P03347 1-512)” was tested, and the binding was “binds”.
